{"source": "patent US20140256638A1", "about": "“PEPTOID NEUTRALIZING AGENTS” (The Regents of the University of California, priority 2013, published 2014)", "assay": "Isothermal Titration Calorimetry (ITC) of peptoid-heparin binding", "method": "For Table 3, binding constants and other thermodynamic parameters were determined for the chiral 12-mer analogs by ITC. The S12mer data represents 3 trials, and the R12mer represents 2 trials. Values for the parameters Kb, AH and N are obtained by fitting the titration curves. AG is calculated from ΔG=−RTlnKb and ΔS is calculated from […].\nIsothermal Titration Calorimetry (“ITC”) was used to determine directly ΔH, the binding constant and stoichiometry, and ΔS was then calculated from the binding constant and ΔH for the binding reaction between heparin and the peptoids produced in this study. In a typical ITC experiment, peptoid in buffer solution was placed in the sample cell and an equivalent quantity of the same buffer solution was placed in the reference cell. Heparin in buffer solution was placed in the titration syringe. Heparin titrant was added to the sample cell in 10 μL aliquots with 210 sec. between aliquots.\nFIG. 11 presents the isotherm for the endothermic reaction. The resulting integrated titration curve is given in FIG. 12 for a reaction between 0.20 mM peptoid in the sample cell and 0.25 mM heparin in the titration syringe.", "key": {"[1]": {"details": "Table 3, ITC, stoichiometry from fit of titration curves, S12mer 3 trials, R12mer 2 trials"}}}
{"substance": "H-[N(Arg)-N(Bu)-N(Spe)]2-NH2 [s6merG]", "values": [{"measurement": "N", "setting": "Table 4, ITC, stoichiometry", "value": "17 ± 0.7"}]}
{"substance": "H-[N(Arg)-N(Bu)-N(Spe)]3-NH2 [s9merG]", "values": [{"measurement": "N", "setting": "Table 4, ITC, stoichiometry", "value": "20 ± 3.5"}]}
{"substance": "H-[N(Arg)-N(Bu)-N(Spe)]-NH2 [s3merG]", "values": [{"measurement": "N", "setting": "Table 4, ITC, stoichiometry", "value": "25 ± 2.1"}]}
{"substance": "H-[N(Arg)-N(Et)-N(Spe)]3-NH2 [s9merEtG]", "values": [{"measurement": "N", "setting": "Table 4, ITC, stoichiometry", "value": "20 ± 1.4"}]}
{"substance": "H-[N(Arg)-N(Pr)-N(Spe)]3-NH2 [s9merPrG]", "values": [{"measurement": "N", "setting": "Table 4, ITC, stoichiometry", "value": "24 ± 0.9"}]}
{"substance": "H-[N(Cad)-N(Bu)-N(Spe)]3-NH2 [s9merCad]", "values": [{"measurement": "N", "setting": "Table 4, ITC, stoichiometry", "value": "21.9 ± 0.3"}]}
{"substance": "H-[N(Cad)G-N(Bu)-N(Spe)]3-NH2 [s9merCadG]", "values": [{"measurement": "N", "setting": "Table 4, ITC, stoichiometry", "value": "20 ± 1.4"}]}
{"substance": "H-[N(Lys)-N(Bu)-N(Spe)]3-NH2 [s9merLys]", "values": [{"measurement": "N", "setting": "Table 4, ITC, stoichiometry", "value": "16 ± 0.1"}]}
{"substance": "H-[N(Lys)G-N(Bu)-N(Spe)]3-N2 [s9merLysG]", "values": [{"measurement": "N", "setting": "Table 4, ITC, stoichiometry", "value": "17 ± 3.4"}]}
{"substance": "H-[N(Orn)-N(All)-N(Spe)]3-NH2 [s9merAll]", "values": [{"measurement": "N", "setting": "Table 4, ITC, stoichiometry", "value": "19.3 ± 2.4"}]}
{"substance": "H-[N(Orn)-N(Bu)-N(Rpe)]4-NH2 [r12mer]", "values": [{"measurement": "N", "setting": "[1]", "value": 16.26}, {"measurement": "N", "setting": "Table 4, ITC, stoichiometry", "value": "16 ± 0.9"}]}
{"substance": "H-[N(Orn)-N(Bu)-N(Spe)]2-NH2 [s6mer]", "values": [{"measurement": "N", "setting": "Table 4, ITC, stoichiometry", "value": "18 ± 2.0"}]}
{"substance": "H-[N(Orn)-N(Bu)-N(Spe)]3-NH2 [s9mer]", "values": [{"measurement": "N", "setting": "Table 4, ITC, stoichiometry", "value": "18 ± 2.7"}]}
{"substance": "H-[N(Orn)-N(Bu)-N(Spe)]4-NH2 [s12merG]", "values": [{"measurement": "N", "setting": "Table 4, ITC, stoichiometry", "value": "19.7 ± 5.7"}]}
{"substance": "H-[N(Orn)-N(Bu)-N(Spe)]4-NH2 [s12mer]", "values": [{"measurement": "N", "setting": "[1]", "value": 19.48}, {"measurement": "N", "setting": "Table 4, ITC, stoichiometry", "value": "19.5 ± 2.7"}]}
{"substance": "H-[N(Orn)-N(Bu)-N(Spe)]-NH2 [s3mer]", "values": [{"measurement": "N", "setting": "Table 4, ITC, stoichiometry", "value": "25 ± 4.8"}]}
{"substance": "H-[N(Orn)-N(Bz)-N(Spe)]3-NH2 [s9merBz]", "values": [{"measurement": "N", "setting": "Table 4, ITC, stoichiometry", "value": "14 ± 0.2"}]}
{"substance": "H-[N(Orn)-N(Et)-N(Spe)]3-NH2 [s9merEt]", "values": [{"measurement": "N", "setting": "Table 4, ITC, stoichiometry", "value": "17 ± 0.9"}]}
{"substance": "H-[N(Orn)-N(Me)-N(Spe)]3-NH2 [s9merMe]", "values": [{"measurement": "N", "setting": "Table 4, ITC, stoichiometry", "value": "15 ± 0.4"}]}
{"substance": "H-[N(Orn)-N(Orn)-N(Spe)]4-NH2 [s9merOrnOrn]", "values": [{"measurement": "N", "setting": "Table 4, ITC, stoichiometry", "value": "8.7 ± 0.9"}]}
{"substance": "H-[N(Orn)-N(Pr)-N(Spe)]3-NH2 [s9merPr]", "values": [{"measurement": "N", "setting": "Table 4, ITC, stoichiometry", "value": "17 ± 0.9"}]}
